## Percent effect of library compounds

Data taken from ChEMBL document CHEMBL3988442, “University of Dundee, Small-Polar-MMV Screening Library” (2021).

The filed quantity is “Percent Effect” (%).
The controls that fix the scale are not given in the record; negative values are as filed.
This is an unselected part of the compounds tested.
Two or more numbers in one place are separate tests of the same structure; such repeats can differ widely.

A: 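Growth of Mycobacterium tuberculosis over 3 days (7H9 medium with glucose and tyloxapol); the read-out is not stated. Compounds at 50 µM. The record gives no direction; compounds that gave an IC50 in retests scored well above the rest, so higher reads as more growth inhibition. About 69,000 compounds were tested under these conditions; 1.1% (about 760) showed 50% or more at least once.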
B: 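Growth of Mycobacterium tuberculosis over 4 days (cholesterol / DPPC medium with tyloxapol); the read-out is not stated. Concentration: 50 µM. Direction is inferred from retests: higher values go with more growth inhibition. Of about 69,000 compounds tested this way, about 370 (0.54%) reached 50% or more in at least one test.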

Cc1cnc(CCN(C)C(=O)c2ccc(O)nc2C)s1 read A: -15.42%; B: -4.308%.
[H][C@@]12CN(C)C(=O)N1CCN(C(=O)c1ccc3c(c1)OCO3)C2 read A: 0.02342% & -8.634%; B: -5.459%.
[H][C@]12CC[C@]([H])(CN(Cc3ccccn3)C1)N(CC(=O)NCc1cccs1)C2 read A: 25.72%; B: 14.08%.
COc1ccc2cc(CNc3c(C)nn(C(C)C)c3C)ccc2c1 read A: -13.99%; B: 3.016%.
CC(C)(C)n1cc(C2=CCN(CCNC(N)=O)CC2)cn1 read A: 0.8856%; B: -9.172%.
COC(=O)Cn1c(C)cc(=O)c2cc(F)ccc21 read A: 5.66%; B: 9.081%.
O=C(c1ccc(S(=O)(=O)N2CCNCC2)cc1)N1CCCC(O)C1 (stereo not drawn) read A: -30.17% & -4.982%; B: -46.88%.
c1cnnc(N2CCCC2CNCc2csc(-c3ccco3)n2)c1 (stereo not drawn) read A: 31.72%; B: -0.7939%.
Cc1nc(-c2cccc(N3CCC(N4CCCC(C#N)C4)CC3)c2)cs1 (stereo not drawn) read A: -32.62%; B: -16.94%.
CNC(=O)c1nc(CC(=O)Nc2ccc3cc[nH]c3c2)no1 read A: -0.4487% & 12.58%; B: 15.27%.
CN(C)c1ccc2c(c1)CN(C(=O)c1c[nH]cn1)C2c1cnco1 (stereo not drawn) read A: -59.35% & -7.685%; B: -17.1%.
O=C(Cc1cccnc1)NCCS(=O)(=O)c1ccccc1F read A: 5.236%; B: 4.545%.
CCC(C)NC(=O)CCc1ccnc2ccccc12 (stereo not drawn) read A: 4.237% & 5.91%; B: -2.345%.
CCN1CC(C(=O)N2CCc3cc(C(N)=O)n(C)c3C2)CC1=O (stereo not drawn) read A: -19.72%; B: -1.434%.
CS(=O)(=O)Cc1ccc(NC(=O)c2cccnc2)cc1F read A: -8.961%; B: 0.5032%.
[H][C@]12OCCN(Cc3ccc(C)o3)[C@@]1([H])CC[C@@H]2OCc1cccnc1 read A: -34%; B: -2.887%.
CC(C)CN1C(=O)C2(CCN(Cc3ccoc3)C2)c2ccccc21.O=C(O)C(F)(F)F (stereo not drawn) read A: 22.19%; B: -1.004%.
COc1ccc(/C=C/CN2CCC3(C2)CN(C)C(=O)O3)cc1 (stereo not drawn) read A: -16.52%; B: -6.876%.
CC(C)(C(=O)NCCC(=O)O)c1cccc(Br)c1 read A: 6.842% & 1.281%; B: -9.516%.
CCN(CC)Cc1cc(=O)n2c(n1)CN(C(=O)c1ccc[nH]1)CCC2 read A: -5.871%; B: -30.17%.
CCCC1(NC(=O)C(c2ccccc2C)N(C)C)CC1 (stereo not drawn) read A: 17.69%; B: 3.809%.
O=C(O)C(F)(F)F.O=C(O)C(F)(F)F.[H][C@@]12CCN(Cc3cccc(C)n3)[C@@]1([H])CCN2Cc1cccs1 read A: 0.5481%; B: -10.75%.
Cc1nsc(C(=O)NCCCc2ccccc2)n1 read A: 59.76%; B: 48.79%.
COCC1Cn2nnc(-c3cnn(C)c3)c2CN1Cc1ccoc1.O=C(O)C(F)(F)F (stereo not drawn) read A: 6.247%; B: -3.99% & -6.3%.
COc1ccccc1CCNC(=O)CNCC1CN(C)CCO1 (stereo not drawn) read A: -2.462%; B: 13.91%.
CNC(=O)c1ccc(C(=O)N2CCC(Nc3cccnn3)CC2)cn1 read A: 1.835%; B: 8.742%.
CCn1cnnc1C1CCN(C(=O)c2cc3c(s2)CCOC3)CC1 read A: -1.722% & -15.23%; B: -1.608%.
N#Cc1ccc(NC2CCN(Cc3ccccn3)CC2)c(F)c1 read A: 20.12% & 3.199%; B: 22.93%.
CCN1CCC2(C1)CN(S(=O)(=O)c1cn(C)cn1)C2.O=C(O)C(F)(F)F.O=C(O)C(F)(F)F read A: 15.48%; B: -2.767%.

The last 2 entries again:

compound,A,B
N#Cc1ccc(NC2CCN(Cc3ccccn3)CC2)c(F)c1,20.12 & 3.199,22.93
CCN1CCC2(C1)CN(S(=O)(=O)c1cn(C)cn1)C2.O=C(O)C(F)(F)F.O=C(O)C(F)(F)F,15.48,-2.767